For the assay, the target named is NF-kb-p65 (human (endogenous in T24/RT4 bladder cancer cells)), Q04206. Briefly: co-IP; cell lysate in IP buffer with 2 μg anti-NF-kb-p65 overnight at 4°C, Protein A+G Agarose 2 h at 4°C, blot for NF-kb-p65, IKBα and IKBβ; cells with overexpression or knockdown of LINC00467. As to conditions: remark: other sources report otherwise.

Results are given in words; binding and its absence hold for the method and conditions named. In cells and extracts the contact can be indirect. Some results given as binding are weak or reduced against the parent protein; the word gives no strength.

B1: IKBα, P25963 1-317 (protein)
chain: MFQAAERPQEWAMEGPRDGLKKERLLDDRHDSGLDSMKDEEYEQMVKELQEIRLEPQEVPRGSEPWKQQLTEDGDSFLHLAIIHEEKALTMEVIRQVKGDLAFLNFQNNLQQTPLHLAVITNQPEIAEALLGAGCDPELRDFRGNTPLHLACEQGCLASVGVLTQSCTTPHLHSILKATNYNGHTCLHLASIHGYLGIVELLVSLGADVNAQEPCNGRTALHLAVDLQNPDLVSLLLKCGADVNRVTYQGYSPYQLTWGRPSTRIQQQLGQLTLENLQMLPESEDEESYDTESEFTEFTEDELPYDDCVFGGQRLTL
Consider B1, for which the binding result is “binds”.

(Values after PMC8194349.)
